Measured values taken from publication PMC6219514, “Structural basis of Gip1 for cytosolic sequestration of G protein in wide-range chemotaxis” (Nature Communications, 2018).
These are yes or no findings as the source states them, for the method shown. Binding seen in cells or lysates may run through a third protein. Some entries that bind do so weakly or less than the wild type.

What was measured:
[1] = target: T1, F2G-Gγ(ΔCAAX) (Dictyostelium discoideum) (UniProt Q95ZG8); assay: co-IP; 'pull-down assay': Dictyostelium cells expressing Flag-tagged proteins starved 2 h, lysed in CHAPS buffer (40 mM HEPES pH 7.5, 120 mM NaCl, 0.3% CHAPS); supernatant with anti-Flag M2 beads, 4 °C, 1.5 h; immunoblot
T1 sequence: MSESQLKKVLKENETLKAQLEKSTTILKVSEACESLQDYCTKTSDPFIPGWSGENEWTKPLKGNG

[2] = target: T2, F2G-Gγ(WT) (Dictyostelium discoideum) (UniProt Q95ZG8); assay: co-IP; isolation of Gβγ for the in vitro assay: lysate in NP40 buffer (40 mM HEPES pH 7.5, 300 mM NaCl, 1% NP40) with anti-Flag M2 beads, 4 °C, 1 h, washed; Flag-tagged Gγ as bait
T2 sequence (chain, C-terminal cysteine Cys66 geranylgeranylated and methylated): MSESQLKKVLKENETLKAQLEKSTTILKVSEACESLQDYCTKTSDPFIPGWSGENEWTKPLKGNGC

binding [1]: binds
binding [2]: binds
B1: Gβ, endogenous (protein, UniProt P36408 1-347)
chain: MSSDISEKIQQARRDAESMKEQIRANRDVMNDTTLKTFTRDLPGLPKMEGKIKVRRNLKGHLAKIYAMHWAEDNVHLVSASQDGKLLVWDGLTTNKVHAIPLRSSWVMTCAYSPTANFVACGGLDNICSIYNLRSREQPIRVCRELNSHTGYLSCCRFLNDRQIVTSSGDMTCILWDVENGTKITEFSDHNGDVMSVSVSPDKNYFISGACDATAKLWDLRSGKCVQTFTGHEADINAVQYFPNGLSFGTGSDDASCRLFDIRADRELMQYTHDNILCGITSVGFSFSGRFLFAGYDDFTCNVWDTLKGERVLSLTGHGNRVSCLGVPTDGMALCTGSWDSLLKIWA
